Measurements: publication PMC10978942
No constants are given. Whether binding was seen depends on the method and setting. Some binding calls cover weakened binding; strength is not graded here. Sequences can lack the tags named with a protein.

Molecular target: T1, ACE1-BD (ACE1 fused with the GAL4 DNA-binding domain) (Trichoderma reesei) (UniProt Q9P8W3)
T1 sequence: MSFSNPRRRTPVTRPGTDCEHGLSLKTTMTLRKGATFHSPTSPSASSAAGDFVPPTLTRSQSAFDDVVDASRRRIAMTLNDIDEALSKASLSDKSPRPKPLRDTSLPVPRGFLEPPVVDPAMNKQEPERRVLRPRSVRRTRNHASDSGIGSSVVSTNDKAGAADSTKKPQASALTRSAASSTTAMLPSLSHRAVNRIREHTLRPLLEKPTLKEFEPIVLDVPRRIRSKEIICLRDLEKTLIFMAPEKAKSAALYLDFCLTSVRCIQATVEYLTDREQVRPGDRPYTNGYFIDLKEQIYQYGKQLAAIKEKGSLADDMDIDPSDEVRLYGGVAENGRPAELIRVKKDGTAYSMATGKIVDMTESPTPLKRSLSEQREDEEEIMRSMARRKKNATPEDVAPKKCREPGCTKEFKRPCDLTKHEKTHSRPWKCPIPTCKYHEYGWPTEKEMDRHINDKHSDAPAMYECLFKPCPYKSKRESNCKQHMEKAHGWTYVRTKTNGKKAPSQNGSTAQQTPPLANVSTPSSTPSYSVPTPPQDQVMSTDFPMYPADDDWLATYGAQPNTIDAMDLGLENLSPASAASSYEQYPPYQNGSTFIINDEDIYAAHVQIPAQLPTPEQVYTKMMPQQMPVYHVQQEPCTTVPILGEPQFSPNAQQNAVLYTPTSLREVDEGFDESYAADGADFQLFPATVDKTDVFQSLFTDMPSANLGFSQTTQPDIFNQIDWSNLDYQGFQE
Assay: two-hybrid; Matchmaker Gold Yeast Two-Hybrid System; trsam or xyr1 on the GAL4 activation domain (pGADT7), regulators on the GAL4 DNA-binding domain (pGBKT7); growth without histidine and adenine, 3-amino-1,2,4-triazole, X-alpha-gal

B1: XYR1-AD (protein, UniProt G0RLE8 1-920)
chain: MLSNPLRRYSAYPDISSASFDPNYHGSQSHLHSINVNTFGNSHPYPMQHLAQHAELSSSRMIRASPVQPKQRQGSLIAARKNSTGTAGPIRRRISRACDQCNQLRTKCDGLHPCAHCIEFGLGCEYVRERKKRGKASRKDIAAQQAAAAAAQHSGQVQDGPEDQHRKLSRQQSESSRGSAELAQPAHDPPHGHIEGSVSSFSDNGLSQHAAMGGMDGLEDHHGHVGVDPALGRTQLEASSAMGLGAYGEVHPGYESPGMNGHVMVPPSYGAQTTMAGYSGISYAAQAPSPATYSSDGNFRLTGHIHDYPLANGSSPSWGQSDLRYPVLEPLLPHLGNILPVSLACDLIDLYFSSSSSAQMHPMSPYVLGFVFRKRSFLHPTNPRRCQPALLASMLWVAAQTSEASFLTSLPSARSKVCQKLLELTVGLLQPLIHTGTNSPSPKTSPVVGAAALGVLGVAMPGSLNMDSLAGETGAFGAIGSLDDVITYVHLATVVSASEYKGASLRWWGAAWSLARELKLGRELPPGNPPANQEDGEGLSEDVDEHDLNRNNTRFVTEEEREERRRAWWLVYIVDRHLALCYNRPLFLLDSECSDLYHPMDDIKWQAGKFRSHDAGNSSINIDSSMTDEFGDSPRAARGAHYECRGRSIFGYFLSLMTILGEIVDVHHAKSHPRFGVGFRSARDWDEQVAEITRHLDMYEESLKRFVAKHLPLSSKDKEQHEMHDSGAVTDMQSPLSVRTNASSRMTESEIQASIVVAYSTHVMHVLHILLADKWDPINLLDDDDLWISSEGFVTATSHAVSAAEAISQILEFDPGLEFMPFFYGVYLLQGSFLLLLIADKLQAEASPSVIKACETIVRAHEACVVTLSTEYQRNFSKVMRSALALIRGRVPEDLAEQQQRRRELLALYRWTGNGTGLAL
**Q.** Which binding does the source give for B1 here?
**A.** The binding was “binds”.
